Values of other authors, collected in patent US20020032154A1, “Interferon-suppressing placental lactogen peptides” (priority 2000, published 2002).
Some entries share one result that the patent states for a list of compounds.

Tested on: bovine brain capillary endothelial cell (BBCE)
Conditions: maximum; level obtained with bFGF alone as reference; cited from earlier work

Substance	over-stimulation of bFGF-induced cell proliferation relative to bFGF alone [fold]
hGH: human growth hormone, produced by the pituitary (MATGSRTSLLLAFGLLCLPWLQEGSAFPTIPLSRLFDNASLRAHRLHQLAFDTY; HOMO SAPIENS; N-TERMINAL 54 RESIDUES OF HGH-1)	≤ 2
hGH-V: placental human growth hormone variant expressed in syncytiotrophoblasts	≤ 2
